Assay results taken from the supplement of paper PMC10849652.
The other results are listed elsewhere or left out.

Amino acid sequences for entries named in this document (tags omitted). A change or cut given only in a name is not applied to a line headed by its entry.
UniProt O76095: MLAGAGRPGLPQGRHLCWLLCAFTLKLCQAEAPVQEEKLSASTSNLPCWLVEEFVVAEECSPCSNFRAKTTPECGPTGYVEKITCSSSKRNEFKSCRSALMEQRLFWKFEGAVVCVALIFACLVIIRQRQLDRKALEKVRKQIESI
UniProt Q92551: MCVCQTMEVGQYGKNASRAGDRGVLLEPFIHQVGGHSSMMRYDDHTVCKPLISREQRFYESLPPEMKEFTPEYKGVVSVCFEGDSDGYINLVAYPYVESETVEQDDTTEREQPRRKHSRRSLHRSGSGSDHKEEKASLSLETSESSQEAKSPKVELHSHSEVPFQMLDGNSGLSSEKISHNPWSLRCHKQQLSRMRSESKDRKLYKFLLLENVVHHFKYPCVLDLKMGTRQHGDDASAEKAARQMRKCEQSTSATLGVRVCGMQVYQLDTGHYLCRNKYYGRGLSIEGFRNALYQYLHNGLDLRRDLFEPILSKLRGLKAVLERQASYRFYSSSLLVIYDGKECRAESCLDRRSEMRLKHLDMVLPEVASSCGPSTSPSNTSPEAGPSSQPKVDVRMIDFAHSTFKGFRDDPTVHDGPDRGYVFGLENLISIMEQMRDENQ
UniProt P23677, whole entry, looked up: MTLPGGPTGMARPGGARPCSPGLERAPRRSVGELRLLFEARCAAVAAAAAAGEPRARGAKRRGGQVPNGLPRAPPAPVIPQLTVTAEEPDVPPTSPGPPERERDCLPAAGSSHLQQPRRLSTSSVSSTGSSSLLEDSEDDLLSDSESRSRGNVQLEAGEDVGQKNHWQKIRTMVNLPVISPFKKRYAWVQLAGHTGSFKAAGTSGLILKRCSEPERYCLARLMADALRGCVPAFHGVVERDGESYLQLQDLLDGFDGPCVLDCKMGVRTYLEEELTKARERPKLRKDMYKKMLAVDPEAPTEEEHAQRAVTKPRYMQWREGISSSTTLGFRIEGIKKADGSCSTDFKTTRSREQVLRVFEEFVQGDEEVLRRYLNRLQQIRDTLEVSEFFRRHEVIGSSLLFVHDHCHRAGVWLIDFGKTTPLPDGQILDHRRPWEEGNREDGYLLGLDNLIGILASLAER
UniProt Q9NZM3: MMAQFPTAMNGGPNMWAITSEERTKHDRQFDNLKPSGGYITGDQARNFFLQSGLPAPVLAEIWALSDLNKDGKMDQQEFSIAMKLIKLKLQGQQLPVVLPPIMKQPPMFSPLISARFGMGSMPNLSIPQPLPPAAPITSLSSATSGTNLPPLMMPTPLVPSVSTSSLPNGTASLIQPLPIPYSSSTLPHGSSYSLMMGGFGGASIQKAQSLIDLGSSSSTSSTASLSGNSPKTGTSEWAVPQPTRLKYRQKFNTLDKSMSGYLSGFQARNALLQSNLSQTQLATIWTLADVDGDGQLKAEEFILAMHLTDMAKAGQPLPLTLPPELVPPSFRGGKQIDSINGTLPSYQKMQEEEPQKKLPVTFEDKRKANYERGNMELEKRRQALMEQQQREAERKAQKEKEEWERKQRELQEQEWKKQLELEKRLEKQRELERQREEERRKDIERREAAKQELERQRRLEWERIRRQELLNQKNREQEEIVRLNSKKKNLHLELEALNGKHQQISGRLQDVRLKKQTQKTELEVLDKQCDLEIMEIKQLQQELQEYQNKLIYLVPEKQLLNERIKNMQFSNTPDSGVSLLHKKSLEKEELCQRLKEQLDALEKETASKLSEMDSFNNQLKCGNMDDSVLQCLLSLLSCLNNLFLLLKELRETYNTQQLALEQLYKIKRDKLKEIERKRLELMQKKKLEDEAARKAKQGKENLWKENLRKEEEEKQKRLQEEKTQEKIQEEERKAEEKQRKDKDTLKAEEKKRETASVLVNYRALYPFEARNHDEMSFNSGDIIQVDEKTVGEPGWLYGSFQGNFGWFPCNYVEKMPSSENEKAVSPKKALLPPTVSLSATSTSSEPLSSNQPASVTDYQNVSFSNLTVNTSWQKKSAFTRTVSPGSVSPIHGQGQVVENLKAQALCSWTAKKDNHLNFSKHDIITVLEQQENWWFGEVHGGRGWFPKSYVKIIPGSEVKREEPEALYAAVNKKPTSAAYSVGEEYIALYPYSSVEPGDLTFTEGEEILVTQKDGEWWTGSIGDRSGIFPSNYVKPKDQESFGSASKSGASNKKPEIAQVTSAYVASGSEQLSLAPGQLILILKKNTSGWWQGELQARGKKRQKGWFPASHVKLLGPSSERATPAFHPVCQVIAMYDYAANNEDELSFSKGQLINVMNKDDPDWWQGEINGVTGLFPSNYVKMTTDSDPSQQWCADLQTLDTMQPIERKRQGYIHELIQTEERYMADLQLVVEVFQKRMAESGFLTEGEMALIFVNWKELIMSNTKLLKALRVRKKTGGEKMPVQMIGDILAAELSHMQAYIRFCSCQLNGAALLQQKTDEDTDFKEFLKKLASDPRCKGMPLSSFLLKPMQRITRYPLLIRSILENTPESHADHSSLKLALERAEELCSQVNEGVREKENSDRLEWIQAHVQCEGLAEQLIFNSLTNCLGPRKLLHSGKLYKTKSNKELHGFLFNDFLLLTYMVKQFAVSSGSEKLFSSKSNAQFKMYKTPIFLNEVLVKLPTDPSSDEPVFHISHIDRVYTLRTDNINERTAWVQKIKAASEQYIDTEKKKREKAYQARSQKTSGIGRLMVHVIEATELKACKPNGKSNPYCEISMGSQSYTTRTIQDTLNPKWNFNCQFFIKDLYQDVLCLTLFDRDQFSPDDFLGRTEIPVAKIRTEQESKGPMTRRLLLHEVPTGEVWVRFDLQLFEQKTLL
UniProt Q9P2N6: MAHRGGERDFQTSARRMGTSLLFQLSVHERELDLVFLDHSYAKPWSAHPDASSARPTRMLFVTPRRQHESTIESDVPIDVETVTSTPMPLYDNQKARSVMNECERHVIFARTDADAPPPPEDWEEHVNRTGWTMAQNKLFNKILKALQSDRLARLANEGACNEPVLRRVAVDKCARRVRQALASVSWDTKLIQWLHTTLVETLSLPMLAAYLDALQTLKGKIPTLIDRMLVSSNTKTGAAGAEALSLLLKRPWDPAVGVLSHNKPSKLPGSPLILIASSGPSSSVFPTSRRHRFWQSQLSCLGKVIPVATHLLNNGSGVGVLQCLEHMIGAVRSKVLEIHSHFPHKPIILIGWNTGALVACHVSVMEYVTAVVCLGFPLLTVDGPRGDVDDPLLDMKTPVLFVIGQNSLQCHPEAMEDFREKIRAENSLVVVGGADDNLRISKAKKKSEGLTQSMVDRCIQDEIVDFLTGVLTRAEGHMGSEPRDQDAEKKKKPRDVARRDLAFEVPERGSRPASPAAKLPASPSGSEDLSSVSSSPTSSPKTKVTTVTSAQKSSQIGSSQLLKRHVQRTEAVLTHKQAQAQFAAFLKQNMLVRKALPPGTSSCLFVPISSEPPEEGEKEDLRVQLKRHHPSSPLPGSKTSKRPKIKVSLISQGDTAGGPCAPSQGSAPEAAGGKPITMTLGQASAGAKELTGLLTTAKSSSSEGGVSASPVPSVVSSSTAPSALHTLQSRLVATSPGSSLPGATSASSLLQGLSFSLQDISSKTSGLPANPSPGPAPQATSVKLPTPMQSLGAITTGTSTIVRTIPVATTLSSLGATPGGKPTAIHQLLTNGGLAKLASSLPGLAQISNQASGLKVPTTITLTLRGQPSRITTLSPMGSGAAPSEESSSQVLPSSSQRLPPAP
UniProt Q96SY0, whole entry, looked up: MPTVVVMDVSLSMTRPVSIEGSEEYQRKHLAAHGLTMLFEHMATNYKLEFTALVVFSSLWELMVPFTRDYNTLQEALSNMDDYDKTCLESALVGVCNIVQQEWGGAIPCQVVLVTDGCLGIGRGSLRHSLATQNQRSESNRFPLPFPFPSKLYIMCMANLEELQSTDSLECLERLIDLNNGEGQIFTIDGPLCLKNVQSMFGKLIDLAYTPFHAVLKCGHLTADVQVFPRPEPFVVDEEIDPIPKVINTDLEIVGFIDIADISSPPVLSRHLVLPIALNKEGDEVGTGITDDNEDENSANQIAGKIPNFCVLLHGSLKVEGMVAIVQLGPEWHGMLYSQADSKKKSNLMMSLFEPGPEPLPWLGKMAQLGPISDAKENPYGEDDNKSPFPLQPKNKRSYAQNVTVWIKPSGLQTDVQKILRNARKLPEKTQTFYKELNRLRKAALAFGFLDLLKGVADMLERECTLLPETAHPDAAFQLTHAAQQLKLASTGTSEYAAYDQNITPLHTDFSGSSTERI
UniProt Q8NFY9: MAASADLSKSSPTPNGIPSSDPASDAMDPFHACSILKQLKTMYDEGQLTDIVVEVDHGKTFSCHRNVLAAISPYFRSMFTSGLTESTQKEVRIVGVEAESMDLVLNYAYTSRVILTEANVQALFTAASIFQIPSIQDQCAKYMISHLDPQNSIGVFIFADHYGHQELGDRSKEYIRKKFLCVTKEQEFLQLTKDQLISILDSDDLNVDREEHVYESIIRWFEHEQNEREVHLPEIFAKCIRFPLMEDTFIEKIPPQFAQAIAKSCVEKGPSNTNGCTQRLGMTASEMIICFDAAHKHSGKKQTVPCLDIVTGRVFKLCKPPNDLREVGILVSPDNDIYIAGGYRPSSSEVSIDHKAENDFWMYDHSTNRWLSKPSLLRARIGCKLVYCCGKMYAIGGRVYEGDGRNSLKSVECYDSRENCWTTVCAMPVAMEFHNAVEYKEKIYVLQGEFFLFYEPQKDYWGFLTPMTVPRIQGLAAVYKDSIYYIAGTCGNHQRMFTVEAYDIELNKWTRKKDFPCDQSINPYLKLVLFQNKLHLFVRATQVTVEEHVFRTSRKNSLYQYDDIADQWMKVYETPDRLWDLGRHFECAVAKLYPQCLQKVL
UniProt Q96J02: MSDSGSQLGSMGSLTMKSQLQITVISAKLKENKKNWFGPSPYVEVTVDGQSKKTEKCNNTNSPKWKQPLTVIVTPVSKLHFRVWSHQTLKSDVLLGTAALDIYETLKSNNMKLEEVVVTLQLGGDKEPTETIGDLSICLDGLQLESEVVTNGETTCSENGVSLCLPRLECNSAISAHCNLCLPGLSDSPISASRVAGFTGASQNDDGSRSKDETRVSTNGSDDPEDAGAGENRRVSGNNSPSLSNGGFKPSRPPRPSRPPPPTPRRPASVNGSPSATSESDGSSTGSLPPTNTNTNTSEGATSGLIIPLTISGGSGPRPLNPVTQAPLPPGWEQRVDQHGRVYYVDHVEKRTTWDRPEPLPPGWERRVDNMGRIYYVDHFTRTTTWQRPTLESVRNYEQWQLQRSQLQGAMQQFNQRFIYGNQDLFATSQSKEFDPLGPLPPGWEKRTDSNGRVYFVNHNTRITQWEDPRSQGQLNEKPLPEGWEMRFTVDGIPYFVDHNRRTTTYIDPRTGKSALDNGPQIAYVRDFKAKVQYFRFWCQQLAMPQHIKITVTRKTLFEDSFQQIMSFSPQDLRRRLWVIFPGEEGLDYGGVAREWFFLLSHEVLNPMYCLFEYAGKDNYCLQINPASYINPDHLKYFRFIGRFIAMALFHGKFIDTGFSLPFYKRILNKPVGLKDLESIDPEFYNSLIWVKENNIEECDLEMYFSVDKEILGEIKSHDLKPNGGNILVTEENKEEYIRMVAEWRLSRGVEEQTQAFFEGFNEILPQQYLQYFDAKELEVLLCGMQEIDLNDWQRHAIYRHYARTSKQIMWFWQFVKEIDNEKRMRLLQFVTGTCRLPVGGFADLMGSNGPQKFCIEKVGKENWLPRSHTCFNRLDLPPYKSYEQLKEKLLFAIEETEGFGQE
UniProt Q96AB3: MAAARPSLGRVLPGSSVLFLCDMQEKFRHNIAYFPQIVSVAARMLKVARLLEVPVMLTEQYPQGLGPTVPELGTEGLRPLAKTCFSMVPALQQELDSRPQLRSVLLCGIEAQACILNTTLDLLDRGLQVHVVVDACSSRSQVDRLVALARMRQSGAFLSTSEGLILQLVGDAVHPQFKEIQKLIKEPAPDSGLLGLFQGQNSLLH
UniProt Q9BW62: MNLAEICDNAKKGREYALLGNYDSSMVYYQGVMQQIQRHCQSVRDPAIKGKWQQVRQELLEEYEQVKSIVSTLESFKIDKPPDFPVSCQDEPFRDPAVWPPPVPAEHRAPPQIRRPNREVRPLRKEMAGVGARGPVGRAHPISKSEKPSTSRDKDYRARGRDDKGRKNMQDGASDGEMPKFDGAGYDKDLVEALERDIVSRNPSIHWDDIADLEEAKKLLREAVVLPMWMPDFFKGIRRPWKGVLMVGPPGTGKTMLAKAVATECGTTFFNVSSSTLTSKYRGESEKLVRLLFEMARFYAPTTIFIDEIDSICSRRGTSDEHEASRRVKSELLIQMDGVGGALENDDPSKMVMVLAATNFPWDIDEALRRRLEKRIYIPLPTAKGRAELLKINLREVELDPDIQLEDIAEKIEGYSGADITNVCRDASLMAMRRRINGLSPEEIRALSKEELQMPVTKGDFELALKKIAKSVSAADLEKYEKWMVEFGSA

Columns and labels:
Test in all cases: log2 fold change, soluble protein after heating vs DMSO (PISA); higher = thermal stabilisation; K562 lysate, 10 uM; active = over 0.2 and 3.5 SD of the protein, either way, in both replicates (recomputed)
[1] = compound: C#Cc1cccc(Nc2ncnc3cc(OCCOC)c(OCCOC)cc23)c1 [erlotinib]
Method in brief: (§1)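 Quantification was by TMTpro 16plex LC-MS/MS with equalised channel sums, applied to the supernatant after 21,000xg for 90 min. Samples were crude K562 extract at 1 mg/mL protein in PBS pH 7.4 with 1 mM MgCl2, treated with 10 μM compound for 30 min, heated for 3 min across 48°C-58°C, pooled and brought to 0.5% NP-40 at 4°C. Values are log-two fold changes in thermal stability relative to solvent controls, from duplicates.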

[2] = compound: C/C(=N\NC(=O)C1=CC(=CC=C1)S(=O)(=O)N2CCOCC2)/C3=C(C=CC(=C3)Cl)O
Method in brief: as §1

[3] = compound: C1=CC(=CC=C1C2=NC3=C(N2)C=C(C=C3)C(=O)N)OC4=CC=C(C=C4)Cl
Method in brief: as §1

[4] = compound: C1=CC2=C(C=CC(=C2)/C=C\3/C(=O)NC(=NCC4=CC=CS4)S3)N=C1
Method in brief: as §1

[5] = compound: C1=CC2=NC=CN=C2C=C1/C=C/3\C(=O)NC(=O)S3
Method in brief: as §1

[6] = compound: C1=CC=C(C=C1)C2=NC(=C(N2)C3=CC=NC=C3)C4=CC(=C(C=C4)Cl)O
Method in brief: as §1

[7] = compound: C1=CC=C2C(=C1)C3=NNC4=CC=CC(=C43)C2=O
Method in brief: as §1

[8] = compound: C1CCN(C1)C(=O)NC2=CC=CC(=C2)NC3=NC=C(C(=N3)NCCC4=CN=CN4)Br
Method in brief: as §1

[9] = compound: C1CN(CCC1(CC2=CC=C(C=C2)Cl)N)C3=NC=NC4=C3C=CN4
Method in brief: as §1

[10] = compound: C1COCCN1CCN2C3=CC=CC=C3N=C2NC(=O)C4=CC(=CC=C4)[N+](=O)[O-] [IRAK-1-4 Inhibitor I]
Method in brief: as §1

Measured: log2 fold change

JTB (UniProt O76095)
inactive: [1] -0.07 | [2] 0.078 | [3] -0.012 | [4] 0.101 | [5] -0.139 | [6] 0.015 | [7] -0.212 | [8] 0.017 | [9] -0.003 | [10] -0.003

IP6K1 (UniProt Q92551)
inactive: [1] -0.036 | [2] -0.076 | [3] -0.016 | [4] 0.079 | [5] -0.102 | [6] 0.033 | [7] -0.06 | [8] 0.015 | [9] 0.076 | [10] 0.015

ISOC1 (UniProt Q96CN7)
inactive: [1] -0.008 | [2] 0.009 | [3] 0.007 | [4] -0.015 | [5] -0.019 | [6] 0.004 | [7] 0.007 | [8] 0.001 | [9] -0.019 | [10] 0.016

ITPKA (UniProt P23677)
inactive: [1] 0.021 | [2] -0.042 | [3] 0.041 | [4] 0.043 | [5] 0.006 | [6] 0.046 | [7] 0.006 | [8] -0.07 | [9] 0.011 | [10] -0.013

ITSN2 (UniProt Q9NZM3)
inactive: [1] -0.066 | [2] 0.012 | [3] 0.04 | [4] 0.009 | [5] -0.023 | [6] -0.043 | [7] -0.007 | [8] -0.015 | [9] 0.011 | [10] -0.037

KANSL3 (UniProt Q9P2N6)
inactive: [1] -0.031 | [2] -0.091 | [3] -0.051 | [4] -0.016 | [5] 0.026 | [6] 0.029 | [7] 0 | [8] -0.102 | [9] -0.101 | [10] -0.014

INTS14 (UniProt Q96SY0)
inactive: [1] 0.007 | [2] -0.13 | [3] 0.025 | [4] 0.008 | [5] -0.012 | [6] -0.001 | [7] 0.018 | [8] -0.01 | [9] 0 | [10] 0.006

INTS8 (UniProt Q75QN2)
inactive: [1] -0.002 | [2] 0.043 | [3] -0.051 | [4] 0.02 | [5] -0.048 | [6] 0.037 | [7] -0.004 | [8] 0.066 | [9] -0.035 | [10] 0.015

KBTBD8 (UniProt Q8NFY9)
inactive: [1] 0.076 | [2] -0.024 | [3] 0.007 | [4] 0 | [5] -0.18 | [6] 0.006 | [7] -0.09 | [8] 0.03 | [9] 0.013 | [10] 0.049

ITCH (UniProt Q96J02)
inactive: [1] -0.037 | [2] -0.001 | [3] 0.014 | [4] 0.077 | [5] -0.031 | [6] -0.032 | [7] -0.038 | [8] 0.005 | [9] -0.039 | [10] 0.018

Two neighbouring entries out of the list so far:
ITPKA (UniProt P23677)
inactive: [1] 0.021 | [2] -0.042 | [3] 0.041 | [4] 0.043 | [5] 0.006 | [6] 0.046 | [7] 0.006 | [8] -0.07 | [9] 0.011 | [10] -0.013

ITSN2 (UniProt Q9NZM3)
inactive: [1] -0.066 | [2] 0.012 | [3] 0.04 | [4] 0.009 | [5] -0.023 | [6] -0.043 | [7] -0.007 | [8] -0.015 | [9] 0.011 | [10] -0.037

(cont.)

ITPA (UniProt Q9BY32)
inactive: [1] 0.004 | [2] 0.021 | [3] 0.024 | [4] -0.014 | [5] 0.032 | [6] 0.02 | [7] -0.001 | [8] 0.059 | [9] 0.002 | [10] 0.002

ISOC2 (UniProt Q96AB3)
inactive: [1] -0.018 | [2] 0.003 | [3] 0.001 | [4] -0.035 | [5] -0.006 | [6] -0.072 | [7] 0.003 | [8] -0.007 | [9] -0.001 | [10] 0.053

KATNAL1 (UniProt Q9BW62)
inactive: [1] 0.306 | [2] -0.034 | [3] -0.16 | [4] -0.036 | [5] 0.015 | [6] 0.086 | [7] 0.022 | [8] -0.11 | [9] -0.021 | [10] 0.058

IQSEC2 (UniProt Q5JU85)
inactive: [1] 0.065 | [2] -0.049 | [3] -0.015 | [4] 0.006 | [5] 0 | [6] 0.001 | [7] -0.027 | [8] -0.127 | [9] 0.081 | [10] -0.031

ITFG2 (UniProt Q969R8)
inactive: [1] 0.002 | [2] -0.071 | [3] 0.002 | [4] 0.1 | [5] 0.039 | [6] -0.03 | [7] -0.035 | [8] 0.009 | [9] -0.013 | [10] 0.017
